Values quoted from earlier work, collected in patent US20160258855A1, “Methods and Apparatus to Determine Diffusion Properties of Porous Structures for Drug Delivery” (ForSight Vision4, Inc., priority 2010, published 2016).
At least one structure is not confirmed: it was looked up by name or label, or the drawing left a doubt.

Settings: from Stay, M S et al., Pharm Res 2003; cited from earlier work

## O=C1OC2(c3ccc(O)cc3Oc3cc(O)ccc32)c2ccccc21 [fluorescein]
  diffusion coefficient D: 4.8 to 6 e-6 cm^2/s
